The values below come from PubChem BioAssay AID445 (National Center for Advancing Translational Sciences (NCATS), 2006).

The other results are listed elsewhere or left out. The main result of the screen is listed elsewhere. These columns were measured beside it and carry no call. Most of these compounds were active or inconclusive in the main read-out, so they are no random draw. Potencies come from curve fits of mixed quality, noted in brackets.

One may read the AC50 as the midpoint of the concentration-response curve, whichever way the signal moves.

The nature of this assay: IkB Signaling. The conditions noted are these: ABC-DLBCL IkBa-CBG/CBR dual luciferase ratio (green luciferase fused to IkBa over red control in OCI-Ly3 lymphoma cells), 4 h. In a few lines:
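Curves were fitted separately to fusion (green), unfused (red) and ratio luminescence, then classed by r2, magnitude and activity. Cells: OCI-Ly3, 4 h compound plus doxycycline at 37C; 10 uM MG-132 defined full response.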

Setting [1] is: measured here: control luc red channel unless noted.
[2] abbreviates: measured here: IkB-luc green channel.
Where [3] appears, read: measured here: control luc red channel.

For `CC(=O)OC1=C(C(C)=O)N(Cc2ccccc2)S(=O)(=O)c2ccccc21`, the AC50 under setting [1] is 15.8 µM [falling, partial curve].

Turning to `Cc1cc(NC(=O)c2ccc(F)cc2)ccc1-c1cc2ccccc2oc1=O`, under setting [1], the half-maximal activity concentration (AC50) is 20 µM [falling, partial curve].

Turning to `CC1CCN(C(=O)CCS(=O)(=O)c2cc3c(cc2Cl)NC(=O)CO3)CC1`, the AC50 under setting [1] is 0.00631 µM [rising, full curve, poor fit].

On to `COc1ccc(NC(=O)c2ocnc2C)cc1OC`, for which the AC50 under setting [1] is 3.98 µM [rising, partial curve].

In the case of `CCCCSc1nnc2[nH]c(=O)cc(C)n12`, the concentration at half-maximal activity (AC50) under setting [1] is 5.01 µM [falling, single point].

With `CCN(CC)S(=O)(=O)c1ccc(NC(=O)c2nn(C)c3c2CSc2ccccc2-3)cc1`, under setting [1], the half-maximal activity concentration (AC50) was 20 µM [falling, single point].

Take `CCOc1ccc(Nc2nc(N)c(C(=O)c3ccccc3Cl)s2)cc1`: the AC50 under setting [1] is 2 µM [falling, full curve].

For the compound `Fc1ccc(Nc2nc(SCc3cccc(F)c3)nc3ccccc23)cc1`, the AC50 under setting [1] is 12.6 µM [falling, single point].

In the case of `CCOC(=O)c1ccc(N2C(=O)c3[nH]nc(-c4ccc(C)cc4)c3C2c2ccc(O)cc2)cc1` (stereo not given), the AC50 under setting [1] is 20 µM [falling, partial curve].

As for `CC(C)Cn1cc(NC(=O)NCc2ccc(Cl)cc2)c2ccccc2c1=O`, the concentration at half-maximal activity (AC50) under setting [1] is 31.6 µM [falling, single point].

Turning to `COc1ccc(C2c3c(n(C)c4ccccc34)C(=O)N2CC(=O)Nc2c(C)cc(C)cc2C)cc1` (stereo not given), the AC50 under setting [1] was 20 µM [falling, partial curve].

Turning to `Cc1ccc(-c2csc(N(CCCN3CCOCC3)C(=O)c3ccco3)n2)cc1`, under setting [1], the AC50 is 39.8 µM [falling, single point].

With `CCOc1ccccc1CNC(=O)C(CC)n1nc(C)c2c(C)n(-c3ccccc3)nc2c1=O` (stereo not given), the AC50 under setting [1] is 25.1 µM [falling, partial curve].

With `Cc1c(C(=O)NCc2ccccc2Cl)sc2nc3n(c(=O)c12)CCCC3`, the half-maximal activity concentration (AC50) under setting [1] is 31.6 µM [falling, single point].

Consider `CCOC(=O)N1CCC(NC(=O)c2ccc3c(c2)N(Cc2ccccc2)C(=O)c2ccccc2S3(=O)=O)CC1`, for which the AC50 under setting [1] was 2.51 µM [falling, full curve, poor fit].

On to `Cc1ccc2c(c1)C(=O)OC(C(=O)Nc1ccc(C(=O)O)cc1)C2` (stereo not given), for which the AC50 under setting [1] is 0.251 µM [falling, full curve].

Turning to `O=C(Nc1ccc(Cl)cc1)c1ccc2oc(=O)n(Cc3ccccc3)c2c1`, the AC50 under setting [1] was 39.8 µM [falling, single point].

Regarding `COc1ccc(C(=O)CN2CCN(S(=O)(=O)c3ccc(F)cc3)CC2)cc1`, under setting [1], the AC50 is 5.01 µM [falling, full curve, poor fit].

For `Cc1ccc(C)c(NC(=O)CSc2c(C)cnc3c2c(=O)n(C)c(=O)n3C)c1`, the half-maximal activity concentration (AC50) under setting [1] is 25.1 µM [rising, single point].

As to `CCOc1ccc(OCC)c(NS(=O)(=O)c2c(C)[nH]c(=O)[nH]c2=O)c1`, under setting [1], the AC50 was 3.98 µM [rising, partial curve].

As for `O=C(Cn1cnc2nc3c(cc2c1=O)CCCC3)N1CCN(c2cccc(C(F)(F)F)c2)CC1`, the half-maximal activity concentration (AC50) under setting [1] is 12.6 µM [falling, partial curve].

For `CCC(=O)N1c2ccccc2CC1C(=O)N1CCN(c2cccc(OC)c2)CC1` (stereo not given), the AC50 under setting [1] was 31.6 µM [falling, partial curve].

Turning to `CC(=O)c1ccc(S(=O)(=O)Nc2ccc(-c3ccc(N4CCCCC4)nn3)cc2)cc1`, the AC50 under setting [1] is 25.1 µM [falling, single point].

Regarding `Cc1cccc(NC(=O)CC2Nc3cccc4cccc(c34)NC2=O)c1` (stereo not given), the AC50 under setting [1] is 10 µM [falling, partial curve].

On to `Cc1cccc(NC(=O)CSc2nc(-c3cccc(C)c3)nc3c2Cc2c(CO)cnc(C)c2O3)c1`, for which, under setting [1], the AC50 is 12.6 µM [falling, partial curve].

`Cc1ccc2c(CC(=O)Nc3cccc(C(F)(F)F)c3)coc2c1`: the AC50 under setting [1] was 31.6 µM [falling, single point].

For the compound `CC(C)NC(=O)NC(=O)COC(=O)Cc1ccsc1`, the AC50 under setting [1] is 6.31 µM [rising, single point].

`CCOC(=O)COc1ccc(/C=C(\C#N)c2nc3ccc(C)cc3[nH]2)cc1OC`: under setting [1], the half-maximal activity concentration (AC50) was 20 µM [falling, single point].

For the compound `CCCCOc1ccc(C(=O)Nc2cc(-c3ccc(C)cc3)no2)cc1`, the AC50 under setting [1] was 0.631 µM [falling, full curve, poor fit].

Regarding `CCOC(=O)c1sc(N2C(=O)c3oc4ccccc4c(=O)c3C2c2ccc(C(C)(C)C)cc2)nc1C` (stereo not given), under setting [1], the AC50 was 25.1 µM [falling, partial curve].

Take `Cc1oc2ncn(CC(C)C)c(=O)c2c1C(=O)NCCc1ccc(Cl)cc1`: the AC50 under setting [1] was 3.16 µM [falling, single point].

`NC(=O)c1cc(-c2ccccc2)nc(N2CCOCC2)n1`: under setting [1], the AC50 is 7.94 µM [falling, partial curve].

As for `O=C(COC(=O)c1ccco1)NCc1ccco1`, the AC50 under setting [1] was 39.8 µM [falling, single point].

`Cc1ccc(CNC(=O)c2ccc3c(c2)CCN3S(=O)(=O)c2ccccc2)cc1`: the AC50 under setting [1] was 20 µM [falling, partial curve].

As for `CCOc1ccccc1NC(=O)C1CCCN(c2ncnc3onc(-c4ccc(F)cc4)c23)C1` (stereo not given), under setting [1], the concentration at half-maximal activity (AC50) was 39.8 µM [falling, partial curve, poor fit].

As to `O=C(CSCc1cnn(-c2ccccc2)c1-n1cccc1)NCc1ccc2c(c1)OCO2`, the AC50 under setting [1] is 15.8 µM [falling, partial curve].

For `COc1ccc(S(=O)(=O)N(CC(=O)N2CCN(c3ccccc3OC)CC2)c2ccccc2)cc1`, the AC50 under setting [1] was 10 µM [falling, partial curve].

Consider `COc1ccc(C2C(C(=O)Nc3ccc(C)cc3C)=C(C)Nc3nc(SC)nn32)cc1OC` (stereo not given), for which, under setting [1], the AC50 is 0.794 µM [falling, single point].

For the compound `Cc1ccc(NC(=O)CSc2nnc(COc3ccc(Cl)cc3)o2)cc1`, the half-maximal activity concentration (AC50) under setting [1] was 3.98 µM [falling, full curve].

Turning to `COc1ccc(S(=O)(=O)Nc2ccc3c(c2)sc(=O)n3C)cc1Cl`, the AC50 under setting [1] is 31.6 µM [rising, single point] [measured here: IkB-luc green channel].

In the case of `Cc1cc2c(cc1S(=O)(=O)CCC(=O)N(C)C1CCCCC1)OCC(=O)N2`, under setting [1], the AC50 is 10 µM [falling, partial curve].

`CN(c1ncnc2c1c(-c1ccccc1)cn2-c1cccc(Cl)c1)C1CCCCC1`: the AC50 under setting [1] was 31.6 µM [falling, single point].

Take `O=S(=O)(CCN1CCN(C(c2ccccc2)c2ccccc2)CC1)C(F)(F)F`: the AC50 by setting is: under setting [2], 39.8 µM [rising, single point]; under setting [3], 20 µM [falling, single point].

On to `COc1cccc(NC(=O)CCc2nc(-c3ccc(C(C)(C)C)cc3)no2)c1`, for which, under setting [1], the half-maximal activity concentration (AC50) is 1.58 µM [falling, full curve].

With `Cc1cc(NC(=O)NC(=O)c2ccc(F)cc2F)n[nH]1`, the AC50 under setting [1] is 3.16 µM [falling, partial curve].

`COc1ccc(N2CCN(C(=O)CSc3nnc(-c4cc5ccccc5cc4O)n3C)CC2)cc1`: the concentration at half-maximal activity (AC50) by setting is: under setting [2], 31.6 µM [falling, single point]; under setting [3], 15.8 µM [falling, partial curve].

Take `CCc1ccc(CN(Cc2ccco2)C(=O)COc2ccccc2Cl)cc1`: under setting [1], the AC50 is 31.6 µM [falling, single point].

Regarding `Cc1cccc(-n2c(=O)c3c(c4cc(C)ccc4n3C)n(C)c2=O)c1`, the AC50 under setting [1] was 0.316 µM [falling, full curve].

For the compound `COc1ccc2c(c1)CCc1c(C(=O)Nc3cnn(Cc4ccc(Cl)cc4Cl)c3)noc1-2`, the AC50 under setting [1] was 10 µM [falling, partial curve].

`COc1cccc(NC(=O)CCSc2nc(-c3ccco3)cc(C(F)(F)F)n2)c1`: the concentration at half-maximal activity (AC50) under setting [1] was 15.8 µM [falling, partial curve].

In the case of `CCc1nn2c(=O)cc(COC(=O)c3cccc(NC(=O)COc4ccccc4)c3)nc2s1`, the half-maximal activity concentration (AC50) under setting [1] is 3.16 µM [falling, partial curve].

Regarding `Cc1cc(C)cc(NC(=O)Cn2cc(C(=O)c3ccncc3)c(=O)c3cc(C)c(C)cc32)c1`, under setting [1], the AC50 is 25.1 µM [falling, partial curve].

With `Cc1cccc(NC(=O)C2CCN(S(=O)(=O)c3ccc4[nH]c5c(c4c3)CCCCC5)CC2)c1`, the AC50 under setting [1] was 39.8 µM [falling, single point].

Turning to `COc1ccccc1-c1noc(-c2cccnc2)n1`, under setting [1], the AC50 is 12.6 µM [falling, partial curve, poor fit].

As for `Cc1ccccc1CN1C(=O)c2ccccc2Sc2ccc(C(=O)O)cc21`, the AC50 under setting [1] was 3.16 µM [falling, partial curve].

For the compound `Cc1ccc(NC(=O)C2CCCN(c3cnccn3)C2)cc1Cl` (stereo not given), the AC50 under setting [1] is 12.6 µM [falling, single point].

For the compound `Cc1ccc(CS(=O)Cc2ccc(C(=O)NCc3ccccc3Cl)o2)cc1` (stereo not given), the AC50 under setting [1] is 20 µM [falling, partial curve, poor fit].

On to `COc1ccccc1C(=O)Nc1cccc(OCc2cc(=O)n3c(C)csc3n2)c1`, for which the AC50 under setting [1] is 25.1 µM [falling, single point].

For the compound `CC(C)c1ccc(NC(=O)C2CCN(S(=O)(=O)c3ccc(Br)s3)CC2)cc1`, under setting [1], the AC50 was 7.94 µM [falling, full curve].

Take `CN1C(=O)C(O)(CC(=O)c2ccccc2O)c2cc(Br)ccc21` (stereo not given): the AC50 runs as follows: under setting [2], 3.16 µM [rising, full curve]; under setting [3], 2 µM [rising, full curve].

Regarding `CSc1nn(Cc2ccccc2C)c(NC(C)=O)c1S(=O)(=O)c1ccc(C)cc1`, the AC50 under setting [1] was 25.1 µM [falling, partial curve].

Consider `COCCN1Cc2cccc(C(=O)Nc3ccc(C(=O)OC)cc3)c2C1=O`, for which, under setting [1], the AC50 is 1.26 µM [rising, full curve].
